Data from PMC9935549.
Results are given in words; binding and its absence hold for the method and conditions named. Some entries that bind do so weakly or less than the wild type.

Protein sequences, listed by entry. Tags and fused reporters are not part of them. Lines headed by an entry give the natural chain unless they say otherwise; changes in a name come on top.
UniProt Q15393: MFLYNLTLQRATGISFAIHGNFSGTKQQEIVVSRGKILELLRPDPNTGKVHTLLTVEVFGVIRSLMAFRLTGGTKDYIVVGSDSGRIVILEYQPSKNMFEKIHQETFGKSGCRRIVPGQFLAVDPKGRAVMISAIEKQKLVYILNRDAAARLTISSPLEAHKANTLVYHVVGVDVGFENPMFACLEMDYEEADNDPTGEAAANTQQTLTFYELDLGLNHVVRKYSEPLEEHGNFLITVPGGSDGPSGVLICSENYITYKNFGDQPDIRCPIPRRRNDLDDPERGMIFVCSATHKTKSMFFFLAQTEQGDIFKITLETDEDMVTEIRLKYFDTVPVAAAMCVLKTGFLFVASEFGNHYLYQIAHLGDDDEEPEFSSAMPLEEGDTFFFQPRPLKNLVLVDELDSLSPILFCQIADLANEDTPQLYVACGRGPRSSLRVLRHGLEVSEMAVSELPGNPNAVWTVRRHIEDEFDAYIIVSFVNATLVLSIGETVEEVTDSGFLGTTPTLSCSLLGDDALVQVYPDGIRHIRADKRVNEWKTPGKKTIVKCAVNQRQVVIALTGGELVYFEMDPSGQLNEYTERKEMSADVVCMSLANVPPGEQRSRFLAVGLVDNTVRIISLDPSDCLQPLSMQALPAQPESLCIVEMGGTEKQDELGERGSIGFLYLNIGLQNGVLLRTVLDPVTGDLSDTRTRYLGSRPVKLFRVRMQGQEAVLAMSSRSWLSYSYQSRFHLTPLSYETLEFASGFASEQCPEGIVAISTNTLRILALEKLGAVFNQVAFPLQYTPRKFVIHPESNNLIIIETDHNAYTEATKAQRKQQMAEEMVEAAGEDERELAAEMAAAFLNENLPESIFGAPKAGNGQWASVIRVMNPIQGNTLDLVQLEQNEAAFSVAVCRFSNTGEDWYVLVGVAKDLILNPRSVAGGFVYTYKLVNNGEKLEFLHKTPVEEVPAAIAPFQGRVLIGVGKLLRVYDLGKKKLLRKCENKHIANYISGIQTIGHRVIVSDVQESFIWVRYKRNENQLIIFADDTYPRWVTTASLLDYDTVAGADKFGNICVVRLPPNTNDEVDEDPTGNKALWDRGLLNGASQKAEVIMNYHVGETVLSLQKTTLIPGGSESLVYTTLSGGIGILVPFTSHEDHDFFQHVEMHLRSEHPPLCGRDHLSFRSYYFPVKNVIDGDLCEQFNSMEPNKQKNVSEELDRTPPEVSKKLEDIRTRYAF
UniProt O75533: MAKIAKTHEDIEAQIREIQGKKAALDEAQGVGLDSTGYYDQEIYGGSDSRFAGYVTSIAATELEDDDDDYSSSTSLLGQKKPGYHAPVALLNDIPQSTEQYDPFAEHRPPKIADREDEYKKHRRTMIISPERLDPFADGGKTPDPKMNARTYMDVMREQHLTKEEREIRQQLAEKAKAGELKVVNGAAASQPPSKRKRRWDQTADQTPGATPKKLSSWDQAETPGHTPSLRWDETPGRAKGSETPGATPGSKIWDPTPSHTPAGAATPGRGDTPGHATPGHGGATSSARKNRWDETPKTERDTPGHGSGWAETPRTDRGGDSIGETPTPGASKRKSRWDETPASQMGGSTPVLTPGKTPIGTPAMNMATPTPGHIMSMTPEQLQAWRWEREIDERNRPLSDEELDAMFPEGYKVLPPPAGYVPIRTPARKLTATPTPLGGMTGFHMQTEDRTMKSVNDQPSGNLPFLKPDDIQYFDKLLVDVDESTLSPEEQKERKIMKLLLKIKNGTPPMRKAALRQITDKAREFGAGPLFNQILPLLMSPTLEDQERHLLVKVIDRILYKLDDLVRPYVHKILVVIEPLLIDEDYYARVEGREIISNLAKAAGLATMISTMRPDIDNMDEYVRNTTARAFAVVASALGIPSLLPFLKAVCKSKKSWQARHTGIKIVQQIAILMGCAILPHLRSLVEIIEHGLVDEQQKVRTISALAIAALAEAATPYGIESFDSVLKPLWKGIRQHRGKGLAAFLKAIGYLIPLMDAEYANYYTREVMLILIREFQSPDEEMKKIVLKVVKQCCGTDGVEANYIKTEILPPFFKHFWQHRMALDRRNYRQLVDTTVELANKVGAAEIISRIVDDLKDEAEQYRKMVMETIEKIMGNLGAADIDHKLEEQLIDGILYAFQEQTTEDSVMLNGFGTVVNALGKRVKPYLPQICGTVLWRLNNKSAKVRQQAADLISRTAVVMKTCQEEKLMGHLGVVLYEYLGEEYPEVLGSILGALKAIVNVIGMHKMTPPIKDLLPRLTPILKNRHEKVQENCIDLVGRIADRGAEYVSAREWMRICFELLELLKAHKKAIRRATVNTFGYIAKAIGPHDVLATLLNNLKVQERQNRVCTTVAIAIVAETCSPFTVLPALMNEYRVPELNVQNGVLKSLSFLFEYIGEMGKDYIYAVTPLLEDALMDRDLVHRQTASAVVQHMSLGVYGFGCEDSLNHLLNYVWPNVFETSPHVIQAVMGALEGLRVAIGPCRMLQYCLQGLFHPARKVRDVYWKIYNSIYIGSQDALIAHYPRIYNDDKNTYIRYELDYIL
UniProt Q9BWJ5: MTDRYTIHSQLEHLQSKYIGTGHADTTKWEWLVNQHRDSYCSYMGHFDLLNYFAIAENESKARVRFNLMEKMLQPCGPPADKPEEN
UniProt Q86XP3: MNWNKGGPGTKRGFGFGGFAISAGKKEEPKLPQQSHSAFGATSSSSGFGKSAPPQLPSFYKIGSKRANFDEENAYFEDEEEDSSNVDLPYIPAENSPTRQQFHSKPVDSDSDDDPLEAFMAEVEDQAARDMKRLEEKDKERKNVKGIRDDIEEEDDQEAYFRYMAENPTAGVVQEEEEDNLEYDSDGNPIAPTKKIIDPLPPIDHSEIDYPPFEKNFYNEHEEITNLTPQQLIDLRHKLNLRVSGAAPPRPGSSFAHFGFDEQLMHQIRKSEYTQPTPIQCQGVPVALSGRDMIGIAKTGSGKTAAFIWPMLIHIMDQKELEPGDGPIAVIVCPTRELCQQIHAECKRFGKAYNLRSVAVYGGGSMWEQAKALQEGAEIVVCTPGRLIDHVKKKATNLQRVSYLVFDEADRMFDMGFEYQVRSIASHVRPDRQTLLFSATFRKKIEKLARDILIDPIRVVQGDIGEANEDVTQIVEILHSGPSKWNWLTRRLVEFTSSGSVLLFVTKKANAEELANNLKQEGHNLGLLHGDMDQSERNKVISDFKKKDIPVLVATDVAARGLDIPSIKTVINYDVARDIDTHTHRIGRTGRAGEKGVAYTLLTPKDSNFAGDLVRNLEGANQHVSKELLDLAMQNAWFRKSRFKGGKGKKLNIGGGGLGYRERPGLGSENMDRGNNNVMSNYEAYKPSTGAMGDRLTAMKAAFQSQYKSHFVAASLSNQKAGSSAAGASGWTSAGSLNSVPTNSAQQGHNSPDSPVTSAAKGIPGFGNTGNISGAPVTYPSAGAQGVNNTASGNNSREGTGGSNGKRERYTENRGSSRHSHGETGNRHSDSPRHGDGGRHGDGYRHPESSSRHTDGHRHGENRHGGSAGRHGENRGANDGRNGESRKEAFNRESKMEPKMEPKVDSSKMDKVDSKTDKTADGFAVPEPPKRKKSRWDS

Experiments:
[1] = biological target: SF3B3 (full-length, Twin-Strep tag) (human) (UniProt Q15393); assay: cryo-EM structure; DDX42-SF3b complex: five proteins co-expressed in HEK293F, tandem affinity (anti-Flag, Strep-Tactin), SEC, cross-linked with 0.5 mM BS3; 2.6 Å
[2] = biological target: truncated SF3B1 (residues 454–1304) (human) (UniProt O75533); assay: as above
[3] = biological target: SF3B5 (full-length, Flag tag) (human) (UniProt Q9BWJ5); assay: as above
[4] = biological target: SF3B1 (endogenous, HEK293F, in the DDX42-U2 complex) (human (endogenous in HEK293F)) (UniProt O75533); assay: cryo-EM structure; DDX42-U2 complex: Flag-DDX42 expressed in HEK293F, anti-Flag selection of endogenous complexes, glycerol gradient with 0–0.1% glutaraldehyde; 2.7 Å

binding [1] | binding [2] | binding [3] | binding [4] | Substance
binds | binds | binds | binds | Flag-DDX42 (full-length) (from UniProt Q86XP3 1-938)
binds |  |  |  | truncated SF3B1 (residues 454–1304) (from UniProt O75533 454-1304) (domain or fragment)
